Data taken from the supplement of paper PMC8728848.
The list shows a part of the results.

Key:
Experiment in all cases: glycan array binding signal (z-score within array); higher = stronger binding
Settings in all cases: glycan notation: IUPAC condensed, linker removed
[1] = biological target: Gal(b1-4)GlcNAc(b1-3)Gal(b1-4)Glc
In short: (§1)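 Glycan array data were curated from 3228 arrays in the Consortium for Functional Glycomics database and kept only where the protein sequence was available. Glycan names were converted to IUPAC-condensed notation, and columns mapping to the same glycan were averaged. The binding signal is a within-array Z-score, averaged across arrays of the same protein sequence at different concentrations or buffers and across linkers. Negative Z-scores can be read as non-binding.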

[2] = biological target: Gal(b1-4)GlcNAc(b1-3)Gal(b1-4)GlcNAc
In short: as §1

[3] = biological target: Gal(b1-4)GlcNAc(b1-3)Gal(b1-4)GlcNAc(b1-3)Gal(b1-4)GlcNAc
In short: as §1

[4] = biological target: Gal(b1-4)GlcNAc(b1-3)Gal(b1-4)[Fuc(a1-3)GlcNAc(b1-6)]Gal(b1-4)Glc
In short: as §1

[5] = biological target: Gal(b1-4)GlcNAc(b1-3)Gal(b1-4)[Fuc(a1-3)]GlcNAc(b1-3)Gal(b1-4)[Fuc(a1-3)]GlcNAc
In short: as §1

[6] = biological target: Gal(b1-4)GlcNAc(b1-3)GalNAc
In short: as §1

[7] = biological target: Gal(b1-4)GlcNAc(b1-3)[Gal(b1-4)GlcNAc(b1-6)]Gal(b1-4)GlcNAc
In short: as §1

[8] = biological target: Gal(b1-4)GlcNAc(b1-3)[Gal(b1-4)GlcNAc(b1-6)]GalNAc
In short: as §1

[9] = biological target: Gal(b1-4)GlcNAc(b1-3)[GlcNAc(b1-6)]Gal(b1-4)GlcNAc
In short: as §1

[10] = biological target: Gal(b1-4)GlcNAc(b1-6)Gal(b1-4)GlcNAc
In short: as §1

[11] = biological target: Gal(b1-4)GlcNAc(b1-6)GalNAc
In short: as §1

[12] = biological target: Gal(b1-4)GlcNAc(b1-6)[Gal(b1-3)]GalNAc
In short: as §1

Gal(b1-6)Gal = biological target: Gal(b1-6)Gal
In short: as §1

Gal3S(b1-3)GalNAc = biological target: Gal3S(b1-3)GalNAc
In short: as §1

Gal3S(b1-3)GlcNAc = biological target: Gal3S(b1-3)GlcNAc
In short: as §1

[13] = biological target: Gal3S(b1-3)[Fuc(a1-4)]GlcNAc
In short: as §1

Gal3S(b1-4)Glc = biological target: Gal3S(b1-4)Glc
In short: as §1

Gal3S(b1-4)Glc6S = biological target: Gal3S(b1-4)Glc6S
In short: as §1

Gal3S(b1-4)GlcNAc = biological target: Gal3S(b1-4)GlcNAc
In short: as §1

Gal3S(b1-4)GlcNAc6S = biological target: Gal3S(b1-4)GlcNAc6S
In short: as §1

[14] = biological target: Gal3S(b1-4)[Fuc(a1-3)]Glc
In short: as §1

[15] = biological target: Gal3S(b1-4)[Fuc(a1-3)]Glc6S
In short: as §1

Gal3S4S(b1-4)GlcNAc = biological target: Gal3S4S(b1-4)GlcNAc
In short: as §1

Gal3S6S(b1-4)GlcNAc = biological target: Gal3S6S(b1-4)GlcNAc
In short: as §1

Gal3S6S(b1-4)GlcNAc6S = biological target: Gal3S6S(b1-4)GlcNAc6S
In short: as §1

Gal4S(b1-4)GlcNAc = biological target: Gal4S(b1-4)GlcNAc
In short: as §1

Gal4S6S(b1-4)GlcNAc = biological target: Gal4S6S(b1-4)GlcNAc
In short: as §1

Gal6S(b1-3)GlcNAc = biological target: Gal6S(b1-3)GlcNAc
In short: as §1

Gal6S(b1-3)GlcNAc6S = biological target: Gal6S(b1-3)GlcNAc6S
In short: as §1

Gal6S(b1-4)Glc = biological target: Gal6S(b1-4)Glc
In short: as §1

Gal6S(b1-4)Glc6S = biological target: Gal6S(b1-4)Glc6S
In short: as §1

Gal6S(b1-4)GlcNAc = biological target: Gal6S(b1-4)GlcNAc
In short: as §1

Gal6S(b1-4)GlcNAc6S = biological target: Gal6S(b1-4)GlcNAc6S
In short: as §1

GalNAc(a1-3)Gal = biological target: GalNAc(a1-3)Gal
In short: as §1

GalNAc(a1-3)GalNAc = biological target: GalNAc(a1-3)GalNAc
In short: as §1

[16] = biological target: GalNAc(a1-3)GalNAc(b1-3)Gal(a1-4)Gal(b1-4)Glc
In short: as §1

[17] = biological target: GalNAc(a1-3)GalNAc(b1-3)Gal(a1-4)Gal(b1-4)GlcNAc
In short: as §1

GalNAc(b1-3)Gal = biological target: GalNAc(b1-3)Gal
In short: as §1

[18] = biological target: GalNAc(b1-3)Gal(a1-4)Gal(b1-4)GlcNAc
In short: as §1

[19] = biological target: GalNAc(b1-3)Gal(a1-4)Gal(b1-4)GlcNAc(b1-3)Gal(b1-4)Glc
In short: as §1

[20] = biological target: GalNAc(b1-3)Gal(a1-6)Gal(b1-4)Glc
In short: as §1

GalNAc(b1-3)GalNAc = biological target: GalNAc(b1-3)GalNAc
In short: as §1

GalNAc(b1-4)Gal(b1-4)Glc = biological target: GalNAc(b1-4)Gal(b1-4)Glc
In short: as §1

GalNAc(b1-4)GlcNAc = biological target: GalNAc(b1-4)GlcNAc
In short: as §1

[21] = biological target: GalNAc(b1-4)GlcNAc(b1-2)Man(a1-3)[GalNAc(b1-4)GlcNAc(b1-2)Man(a1-6)]Man(b1-4)GlcNAc(b1-4)GlcNAc
In short: as §1

B1: DCL-1 (Homo sapiens), Q8IX05 (protein)
chain: MLRAALPALLLPLLGLAAAAVADCPSSTWIQFQDSCYIFLQEAIKVESIEDVRNQCTDHGADMISIHNEEENAFILDTLKKQWKGPDDILLGMFYDTDDASFKWFDNSNMTFDKWTDQDDDEDLVDTCAFLHIKTGEWKKGNCEVSSVEGTLCKTAIPYKRKYLSDNHILISALVIASTVILTVLGAIIWFLYKKHSDSRFTTVFSTAPQSPYNEDCVLVVGEENEYPVQFD
glycan array binding signal (z-score) [1]: 0.196 | glycan array binding signal (z-score) [2]: 2.35 | glycan array binding signal (z-score) [3]: -0.206 | glycan array binding signal (z-score) [4]: 0.396 | glycan array binding signal (z-score) [5]: 0.107 | glycan array binding signal (z-score) [6]: 0.221 | glycan array binding signal (z-score) [7]: -0.9 | glycan array binding signal (z-score) [8]: -0.088 | glycan array binding signal (z-score) [9]: 0.859 | glycan array binding signal (z-score) [10]: 0.43 | glycan array binding signal (z-score) [11]: -0.33 | glycan array binding signal (z-score) [12]: -0.001 | glycan array binding signal (z-score) (Gal(b1-6)Gal): -0.915 | glycan array binding signal (z-score) (Gal3S(b1-3)GalNAc): 0.095 | glycan array binding signal (z-score) (Gal3S(b1-3)GlcNAc): -0.083 | glycan array binding signal (z-score) [13]: -0.974 | glycan array binding signal (z-score) (Gal3S(b1-4)Glc): -1.45 | glycan array binding signal (z-score) (Gal3S(b1-4)Glc6S): 0.022 | glycan array binding signal (z-score) (Gal3S(b1-4)GlcNAc): 0.357 | glycan array binding signal (z-score) (Gal3S(b1-4)GlcNAc6S): -0.517 | glycan array binding signal (z-score) [14]: -0.654 | glycan array binding signal (z-score) [15]: 0.532 | glycan array binding signal (z-score) (Gal3S4S(b1-4)GlcNAc): -0.755 | glycan array binding signal (z-score) (Gal3S6S(b1-4)GlcNAc): 0.398 | glycan array binding signal (z-score) (Gal3S6S(b1-4)GlcNAc6S): -0.676 | glycan array binding signal (z-score) (Gal4S(b1-4)GlcNAc): -0.14 | glycan array binding signal (z-score) (Gal4S6S(b1-4)GlcNAc): -0.625 | glycan array binding signal (z-score) (Gal6S(b1-3)GlcNAc): -0.306 | glycan array binding signal (z-score) (Gal6S(b1-3)GlcNAc6S): -0.474 | glycan array binding signal (z-score) (Gal6S(b1-4)Glc): 0.156 | glycan array binding signal (z-score) (Gal6S(b1-4)Glc6S): -0.975 | glycan array binding signal (z-score) (Gal6S(b1-4)GlcNAc): -0.931 | glycan array binding signal (z-score) (Gal6S(b1-4)GlcNAc6S): -0.816 | glycan array binding signal (z-score) (GalNAc(a1-3)Gal): -0.001 | glycan array binding signal (z-score) (GalNAc(a1-3)GalNAc): -0.197 | glycan array binding signal (z-score) [16]: -0.238 | glycan array binding signal (z-score) [17]: 0.047 | glycan array binding signal (z-score) (GalNAc(b1-3)Gal): -0.083 | glycan array binding signal (z-score) [18]: 0.296 | glycan array binding signal (z-score) [19]: -0.381 | glycan array binding signal (z-score) [20]: 0.319 | glycan array binding signal (z-score) (GalNAc(b1-3)GalNAc): 0.148 | glycan array binding signal (z-score) (GalNAc(b1-4)Gal(b1-4)Glc): -0.041 | glycan array binding signal (z-score) (GalNAc(b1-4)GlcNAc): -0.385 | glycan array binding signal (z-score) [21]: 1.17
